Over roughly 33,000 sequences, “E-score (-0.5 to 0.5)” has its median near -0.016; the highest 2% begin near 0.3. The list shows a part of the results.
target: T1, Yer184c (UniProt P39961); assay: PBM E-score (8-mer binding enrichment) (E-score (-0.5 to 0.5)); higher = stronger / more preferred TF binding; settings: protein concentration: 100 nM; construct: GST-full length
T1 sequence: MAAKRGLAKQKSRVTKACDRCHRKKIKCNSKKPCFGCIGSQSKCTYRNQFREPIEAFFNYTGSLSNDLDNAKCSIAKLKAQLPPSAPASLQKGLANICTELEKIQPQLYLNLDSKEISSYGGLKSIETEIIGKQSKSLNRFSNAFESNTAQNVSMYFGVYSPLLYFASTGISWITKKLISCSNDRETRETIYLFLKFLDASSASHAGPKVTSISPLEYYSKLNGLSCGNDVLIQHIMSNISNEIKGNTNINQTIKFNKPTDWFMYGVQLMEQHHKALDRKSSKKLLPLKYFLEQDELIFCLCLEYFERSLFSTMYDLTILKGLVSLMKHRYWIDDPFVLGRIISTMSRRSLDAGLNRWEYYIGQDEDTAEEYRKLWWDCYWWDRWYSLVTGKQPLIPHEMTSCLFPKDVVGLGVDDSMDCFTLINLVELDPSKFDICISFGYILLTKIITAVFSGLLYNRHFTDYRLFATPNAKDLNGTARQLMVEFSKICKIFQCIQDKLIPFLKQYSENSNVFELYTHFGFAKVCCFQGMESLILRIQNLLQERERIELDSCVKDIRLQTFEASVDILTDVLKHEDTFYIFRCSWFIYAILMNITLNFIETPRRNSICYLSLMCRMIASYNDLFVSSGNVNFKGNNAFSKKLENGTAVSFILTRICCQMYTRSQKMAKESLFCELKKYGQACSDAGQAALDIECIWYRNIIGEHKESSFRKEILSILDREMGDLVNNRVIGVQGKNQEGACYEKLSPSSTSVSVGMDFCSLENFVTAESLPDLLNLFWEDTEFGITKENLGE
Experimental: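 Universal 'all 10-mer' protein binding microarrays (Agilent AMADID 015681) probed with GST-tagged S. cerevisiae TFs (full-length or DBD) made by in vitro transcription/translation (PURExpress), about 100-200 nM. Bound TF was detected with fluorescent anti-GST. Each ungapped 8-mer (which stands for itself and its reverse complement) is scored by the PBM enrichment score (E-score), a modified Wilcoxon-Mann-Whitney statistic from -0.5 to +0.5, computed with the Universal PBM Analysis Suite. Scale: above 0.35 generally sequence-specific binding.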

Sequence	PBM E-score
AACGATAC	-0.00121
AATTAGAT	0.185
GCATCGCA	-0.28
GCCGAAAC	0.34
GATAGTCC	-0.078
TAGTTTAA	0.15
CATGCATG	-0.267
AGTGGCCA	-0.185
AACTCATT	-0.00667
CTAAGTAG	-0.0328
AGTACCGG	0.19
AGAATACC	0.0834
GACCGGGC	0.149
GAGGTCGC	-0.165
CGAGACTC	-0.145
GCGTAGCA	-0.0754
TAACCCTA	-0.181
ACCGCCGT	0.031
GCTCCCCA	-0.44
CTTGGGCA	0.0339
ACCCTGCA	-0.0756
ATGGCACG	-0.212
CAACATGG	-0.243
ATACGTAT	0.257
AACGATTA	0.00114

Sequence	PBM E-score
ATCGGCGA	0.128
ATAGATTC	0.0333
GGGACGTA	-0.167
AAAAGTGT	-0.172
AATTACCA	0.139
CGCTTACA	-0.0381
GCCCATAA	-0.179
GAATCGAC	0.0878
CTAACCTA	-0.0678
GAGACTGA	0.0596
CTGTAGCC	-0.0564
GGGCAGGA	-0.269
AAGCTTCC	-0.00566
ATTATGTC	0.12
TGTAGCAA	0.0944
GCTCACCA	-0.239
AATGTGCA	-0.0178
TTGCGAAA	0.214
AAGTTTCC	0.17
AGTGAGCG	-0.0615
GTAAATAC	0.0725
AAGCAAGC	-0.0511
GGAGTGCA	-0.104
GAAAAGTA	0.139
AGCATGGG	-0.276

Sequence	PBM E-score
GAATGAGA	0.0212
GATCTGCC	0.00952
AAAGAATC	-0.108
CCGTTCCC	-0.0128
ACAGCAAT	0.00743
GAGCAGCA	0.0177
ATACGATC	0.0454
AGAGCTAG	-0.144
CTAGAGGA	-0.129
GTAGTCAC	-0.144
ACTTCGAT	-0.00459
CGCTACTC	0.0848
AAGGGGTG	-0.338
GCCTGCAA	-0.15
AGTGTAGC	-0.0232
CTTAAACC	-0.101
GACAATCA	0.0312
CCTGTTTA	-0.0933
CACGTGGC	-0.302
CGAGTAAG	0.184
GGACCACC	-0.116
GGCCCACA	-0.0344
ACAAGTGG	-0.0153
CGATGAAC	0.0662
CCTCGCGA	-0.163

Sequence	PBM E-score
AGGCGGTC	-0.17
ATCCGTAC	0.195
ACATGCAA	-0.0621
CTTTCTTC	0.0894
CGATGTAG	-0.146
AACAAATT	0.201
CTAACGGA	0.284
GGAACATA	0.113
AGAAATAC	0.0513
AGGATACG	-0.0837
CTTCAAAC	0.0607
AGCTAGTA	0.0366
GCGATGAA	0.00439
AGTATTTA	0.0217
AGCTAGCT	-0.051
AACACGGT	0.00361
GAGGAGGC	-0.209
CTGAAACA	0.133
ATGGTAGA	-0.0295
ACAATGTG	-0.0436
GTTTGAAA	0.15
CGCTTACC	0.012
GCCACATA	-0.0485
ACATGCGT	-0.258
CCTTAACG	0.0316

Sequence	PBM E-score
AAATGCGG	0.156
CACCACCA	-0.253
GCGCATTA	0.0247
AGATCTTA	0.0316
GTTACTCA	0.139
CTTGCGCA	-0.115
CCGACGGC	0.106
CGGGATGC	-0.0572
CGTGATGC	-0.132
CGACGGAC	0.192
GATGTGTA	-0.059
CCATTGGA	-0.0545
CTTTGCGC	0.12
ATCAAGCG	0.0135
CATTTCGC	0.0218
AAAATGAA	-0.0319
ATCATCTG	0.114
ACCATTTG	0.0496
AAGATTTC	0.0599
TCAGACCA	-0.144
GAACTAAA	0.141
AGCTTGAA	0.0213
CGTGTCAA	-0.0632
CAGTCCCG	-0.0377
GCGATTAA	0.0949

Sequence	PBM E-score
AACTATAT	0.151
AGTAGCTG	-0.0665
CGTGCTAG	-0.273
GAGGCGTA	-0.0801
CGCTTCCA	-0.00448
GTTTGGAA	0.0444
ATTTTACC	0.3
GGACAGAC	0.098
CGCGACAC	-0.0572
ATAGGCGG	0.0325
CGAGGAAG	-0.0775
AGTGCGTA	-0.242
ACCACGTA	-0.176
GAAGGATC	-0.138
CAATACCG	-0.052
CGTGAGCA	0.0123
GACAGTGC	0.0291
ACTTCTCA	-0.0672
CCTTATGA	-0.00762
CCTTTCAG	-0.167
GGAGCGCA	-0.172
CAAGTTAC	0.113
GGAGATCC	0.0969
TTGCAAAA	0.125
AATGTCTA	0.0815

Sequence	PBM E-score
CACCGACC	-0.0437
CAAGCAAG	-0.0721
AGACCGCA	-0.065
ACTGCGAT	-0.0707
AATGTTAA	-0.0578
CATTTGGA	0.135
AGAGTTCA	-0.226
AACATATA	0.0587
AGGGCTGG	-0.147
CTAAGTTC	0.0413
CGGGGGGA	-0.373
GACCCGTC	-0.207
CATTTCCG	0.3
AAGGGTGC	-0.258
TAGTCTCA	-0.0568
ACCCCACA	-0.308
CGTTAGGC	-0.0339
CAAAAAGA	0.0638
ACCCAGAG	-0.26
CCCGCCAG	-0.0364
CTACGACA	-0.00594
CTCGGAGC	0.299

Another view of part of the listing above:
Sequence,PBM E-score
TAGTTTAA,0.15
AGTACCGG,0.19
CGAGACTC,-0.145
ATGGCACG,-0.212
CAACATGG,-0.243
AACGATTA,0.00114
AAAAGTGT,-0.172
CGCTTACA,-0.0381
GAATCGAC,0.0878
CTAACCTA,-0.0678
GCTCACCA,-0.239
AATGTGCA,-0.0178
TTGCGAAA,0.214
AAGTTTCC,0.17
GGAGTGCA,-0.104
CCGTTCCC,-0.0128
GTAGTCAC,-0.144
GCCTGCAA,-0.15
AGTGTAGC,-0.0232
CCTGTTTA,-0.0933
CACGTGGC,-0.302
AGGCGGTC,-0.17
CTTTCTTC,0.0894
CGATGTAG,-0.146
AGAAATAC,0.0513
AGCTAGCT,-0.051
CTGAAACA,0.133
ACATGCGT,-0.258
CCTTAACG,0.0316
AAATGCGG,0.156
AGATCTTA,0.0316
CGACGGAC,0.192
GATGTGTA,-0.059
TCAGACCA,-0.144
GAACTAAA,0.141
AGCTTGAA,0.0213
CGTGTCAA,-0.0632
CAGTCCCG,-0.0377
AACTATAT,0.151
AGTAGCTG,-0.0665
GTTTGGAA,0.0444
CGCGACAC,-0.0572
GACAGTGC,0.0291
GGAGCGCA,-0.172
GGAGATCC,0.0969
CACCGACC,-0.0437
AGACCGCA,-0.065
AATGTTAA,-0.0578
ACCCCACA,-0.308
CCCGCCAG,-0.0364
